Measured values reported in PMC10954759.
These are yes or no findings as the source states them, for the method shown. In cells and extracts the contact can be indirect. Binding calls can cover weak binding; strength is not graded here.

Amino acid sequences for entries named in this document (tags omitted). A change or cut given only in a name is not applied to a line headed by its entry.
UniProt Q9H3D4: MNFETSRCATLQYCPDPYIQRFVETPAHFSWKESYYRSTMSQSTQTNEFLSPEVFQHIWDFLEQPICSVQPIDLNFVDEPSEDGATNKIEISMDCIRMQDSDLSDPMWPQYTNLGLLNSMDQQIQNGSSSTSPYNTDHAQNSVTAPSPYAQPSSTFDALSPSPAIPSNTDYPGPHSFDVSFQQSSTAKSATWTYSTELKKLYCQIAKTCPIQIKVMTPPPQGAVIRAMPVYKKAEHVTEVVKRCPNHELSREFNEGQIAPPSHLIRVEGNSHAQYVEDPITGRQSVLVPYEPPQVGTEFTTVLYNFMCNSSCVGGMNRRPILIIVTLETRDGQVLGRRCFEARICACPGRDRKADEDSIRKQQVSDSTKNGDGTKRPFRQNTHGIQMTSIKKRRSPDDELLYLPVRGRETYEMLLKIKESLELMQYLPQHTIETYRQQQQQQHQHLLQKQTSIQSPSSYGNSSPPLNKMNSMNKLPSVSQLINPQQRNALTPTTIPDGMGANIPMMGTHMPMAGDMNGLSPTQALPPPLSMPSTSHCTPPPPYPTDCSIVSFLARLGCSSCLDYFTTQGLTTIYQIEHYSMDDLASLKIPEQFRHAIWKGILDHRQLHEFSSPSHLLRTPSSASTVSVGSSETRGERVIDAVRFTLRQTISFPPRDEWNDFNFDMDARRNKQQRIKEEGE
UniProt P42224: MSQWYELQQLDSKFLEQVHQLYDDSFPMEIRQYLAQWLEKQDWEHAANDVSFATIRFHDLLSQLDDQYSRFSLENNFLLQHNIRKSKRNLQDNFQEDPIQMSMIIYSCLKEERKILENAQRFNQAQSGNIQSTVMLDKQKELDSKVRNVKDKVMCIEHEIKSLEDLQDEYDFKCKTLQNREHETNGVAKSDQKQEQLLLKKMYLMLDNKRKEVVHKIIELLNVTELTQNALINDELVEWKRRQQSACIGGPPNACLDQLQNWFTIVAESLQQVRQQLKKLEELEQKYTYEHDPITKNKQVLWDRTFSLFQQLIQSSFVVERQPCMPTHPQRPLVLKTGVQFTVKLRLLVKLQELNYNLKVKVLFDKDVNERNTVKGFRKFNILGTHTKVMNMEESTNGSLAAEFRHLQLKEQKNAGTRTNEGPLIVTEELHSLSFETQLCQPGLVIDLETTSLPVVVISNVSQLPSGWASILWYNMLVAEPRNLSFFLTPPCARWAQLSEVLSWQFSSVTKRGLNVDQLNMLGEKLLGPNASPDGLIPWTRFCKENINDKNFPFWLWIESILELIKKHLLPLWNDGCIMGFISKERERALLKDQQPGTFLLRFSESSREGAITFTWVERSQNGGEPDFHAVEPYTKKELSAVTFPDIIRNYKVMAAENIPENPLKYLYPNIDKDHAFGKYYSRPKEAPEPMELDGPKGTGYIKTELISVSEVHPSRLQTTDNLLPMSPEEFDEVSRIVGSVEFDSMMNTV

Target: TP63 (endogenous, human TT squamous cancer cells) (human (endogenous in TT)) (UniProt Q9H3D4)
Assay: co-IP; endogenous proteins; 500 µg cell lysate (RIPA buffer with protease and phosphatase inhibitors) incubated with the indicated antibody or IgG overnight at 4 °C, then Protein A/G for 4 h at 4 °C, Western blotting; reciprocal precipitation with TP63 or p-STAT1 antibodies; human TT and murine MOC22 …

STAT1 phosphorylated at Ser727 (endogenous, human TT cells) (from UniProt P42224 1-750)
binding: binds

STAT1 phosphorylated at Tyr701 (endogenous, human TT cells) (from UniProt P42224 1-750)
binding: binds weakly
